Here are results for 1 compound from patent publication US8592422B2, “Bicyclic triazole and pyrazole lactams as allosteric modulators of mGluR5 receptors” (Vanderbilt University, priority 2010, dated 2013).

Amino acid sequences for entries named in this document (tags omitted). Residues count along the entry.
UniProt P41594, 21-1180 isoform 2 limits assumed: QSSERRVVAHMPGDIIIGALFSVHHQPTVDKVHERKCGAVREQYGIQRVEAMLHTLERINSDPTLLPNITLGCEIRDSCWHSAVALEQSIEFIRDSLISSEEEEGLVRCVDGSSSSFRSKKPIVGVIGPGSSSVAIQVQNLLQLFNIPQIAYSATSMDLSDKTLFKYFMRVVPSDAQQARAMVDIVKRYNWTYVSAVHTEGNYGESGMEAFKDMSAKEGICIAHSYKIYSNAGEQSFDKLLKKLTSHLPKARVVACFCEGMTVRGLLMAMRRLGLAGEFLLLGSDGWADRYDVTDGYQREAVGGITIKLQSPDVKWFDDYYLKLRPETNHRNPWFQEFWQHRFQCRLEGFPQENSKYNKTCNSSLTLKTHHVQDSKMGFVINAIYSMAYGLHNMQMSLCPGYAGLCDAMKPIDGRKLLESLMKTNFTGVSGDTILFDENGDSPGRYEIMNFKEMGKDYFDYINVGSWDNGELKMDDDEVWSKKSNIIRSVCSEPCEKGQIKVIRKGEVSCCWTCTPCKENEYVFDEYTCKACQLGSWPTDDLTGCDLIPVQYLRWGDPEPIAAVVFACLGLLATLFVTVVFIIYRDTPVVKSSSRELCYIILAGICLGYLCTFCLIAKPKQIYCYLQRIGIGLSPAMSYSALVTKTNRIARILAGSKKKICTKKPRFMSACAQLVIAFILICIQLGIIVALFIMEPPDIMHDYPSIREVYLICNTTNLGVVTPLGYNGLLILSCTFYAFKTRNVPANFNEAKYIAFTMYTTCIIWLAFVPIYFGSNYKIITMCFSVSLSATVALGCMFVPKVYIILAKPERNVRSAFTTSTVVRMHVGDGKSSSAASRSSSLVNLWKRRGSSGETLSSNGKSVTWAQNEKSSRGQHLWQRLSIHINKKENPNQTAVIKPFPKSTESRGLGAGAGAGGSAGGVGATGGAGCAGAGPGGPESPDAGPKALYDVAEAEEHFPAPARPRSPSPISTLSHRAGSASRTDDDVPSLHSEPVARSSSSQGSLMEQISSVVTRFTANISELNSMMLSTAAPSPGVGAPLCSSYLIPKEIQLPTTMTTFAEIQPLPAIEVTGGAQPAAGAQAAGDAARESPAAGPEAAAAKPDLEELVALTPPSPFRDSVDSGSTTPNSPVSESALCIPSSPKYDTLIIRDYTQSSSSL

The target in the assay is human mGluR5a receptor (Homo sapiens, UniProt P41594). The assay can be described thus: Cell-based functional Ca2+ mobilization assay (FDSS), potentiation of glutamate EC20 response. For orientation: Calcium assays in cells follow changes in intracellular calcium, usually with a dye or a luminescent sensor.
Setting [1] is: HEK cells transfected with human mGluR5 (H10H or H12H), in presence of EC20 glutamate.

The match of structure and compound is tentative.

As a reminder, the EC50 is the concentration giving half of the maximal effect. The term pEC50 denotes −log10 of the EC50, conventionally taken in molar units. Take `COc1ncccc1N1CCn2nc(COc3ccccc3)cc2C1=O`: under setting [1], the EC50 is 195 nM and the pEC50 was determined as 6.71. The “Emax (%)” value (maximum % effect in concentration-response curve, as percent of response to maximally effective glutamate) amounted to 68%.
